US20130164309A1
Results are given in words; binding and its absence hold for the method and conditions named. Some binding calls cover weakened binding; strength is not graded here.

Protein sequences, listed by entry. Tags and fused reporters are not part of them. Lines headed by an entry give the natural chain unless they say otherwise; changes in a name come on top.
UniProt Q9NPF0: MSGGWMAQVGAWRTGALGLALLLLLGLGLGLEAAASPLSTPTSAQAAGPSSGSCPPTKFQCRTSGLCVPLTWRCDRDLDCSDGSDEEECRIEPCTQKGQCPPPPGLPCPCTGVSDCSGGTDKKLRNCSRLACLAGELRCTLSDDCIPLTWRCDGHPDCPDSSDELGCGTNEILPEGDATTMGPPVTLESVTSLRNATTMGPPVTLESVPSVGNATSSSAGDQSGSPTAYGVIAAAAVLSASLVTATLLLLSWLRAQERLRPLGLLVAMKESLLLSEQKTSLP

What was measured:
[1] = molecular target: TCblR 32-94, 142-233-mycHis (human) (UniProt Q9NPF0); assay: TC-[57Co]Cbl binding kinetics, Scatchard analysis
[2] = molecular target: TCblR 32-94, 142-233-mycHis (human) (UniProt Q9NPF0); assay: TC-[57Co]Cbl binding with unlabeled TC-Cbl, WGA-agarose, Scatchard analysis

B1: TC-Cbl (recombinant human transcobalamin saturated with cobalamin) (ligand, UniProt P20062 19-427, looked up)
chain: EMCEIPEMDSHLVEKLGQHLLPWMDRLSLEHLNPSIYVGLRLSSLQAGTKEDLYLHSLKLGYQQCLLGSAFSEDDGDCQGKPSMGQLALYLLALRANCEFVRGHKGDRLVSQLKWFLEDEKRAIGHDHKGHPHTSYYQYGLGILALCLHQKRVHDSVVDKLLYAVEPFHQGHHSVDTAAMAGLAFTCLKRSNFNPGRRQRITMAIRTVREEILKAQTPEGHFGNVYSTPLALQFLMTSPMRGAELGTACLKARVALLASLQDGAFQNALMISQLLPVLNHKTYIDLIFPDCLAPRVMLEPAAETIPQTQEIISVTLQVLSLLPPYRQSISVLAGSTVEDVLKKAHELGGFTYETQASLSGPYLTSVMGKAAGEREFWQLLRDPNTPLLQGIADYRPKDGETIELRLVSW
Q: With B1 as the binder, how does the binding [1] read?
A: binds

Q: And the binding [2]?
A: binds
